Measured values reported in patent US20150337308.
Weaker means in comparison with the reference protein, sequence or condition of that experiment. For part of these data: Where a protein sequence is shown, tags need not be part of it.

Protein sequences, listed by entry. Tags and fused reporters are not part of them. Residues count along the entry.
UniProt P14780, 107-707: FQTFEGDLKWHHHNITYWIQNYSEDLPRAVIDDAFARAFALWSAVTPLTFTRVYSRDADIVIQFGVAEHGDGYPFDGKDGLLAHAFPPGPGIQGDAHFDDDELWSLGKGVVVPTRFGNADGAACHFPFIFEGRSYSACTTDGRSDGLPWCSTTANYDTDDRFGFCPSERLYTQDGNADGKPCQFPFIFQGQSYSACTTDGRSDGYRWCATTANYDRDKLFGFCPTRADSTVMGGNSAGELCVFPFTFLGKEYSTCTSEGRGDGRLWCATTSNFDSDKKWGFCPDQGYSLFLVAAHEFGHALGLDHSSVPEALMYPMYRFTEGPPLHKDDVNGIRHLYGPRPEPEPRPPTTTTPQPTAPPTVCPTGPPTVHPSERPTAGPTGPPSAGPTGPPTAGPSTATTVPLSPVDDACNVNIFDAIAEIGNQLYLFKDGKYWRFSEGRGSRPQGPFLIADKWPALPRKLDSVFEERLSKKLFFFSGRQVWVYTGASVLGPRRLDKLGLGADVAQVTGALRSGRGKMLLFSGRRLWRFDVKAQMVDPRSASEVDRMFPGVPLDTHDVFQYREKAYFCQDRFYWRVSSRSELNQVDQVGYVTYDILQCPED

Columns and labels:
[1] = target: hMMP-9 (gelatinase B) (Homo sapiens) (UniProt P14780); assay: SPR; conditions: 2'-F pyrimidines, 2'-OH purines, aptamer 200 nM, purified recombinant protein, protein details: Calbiochem, variant of F3B
[2] = target: T1, hMMP-2 (gelatinase A) (Homo sapiens) (UniProt P08253); assay: filter binding; conditions: 2'-F pyrimidines, 2'-OH purines; light signal; purified recombinant protein; label: 32P 5' end
T1 sequence (looked up, limits assumed): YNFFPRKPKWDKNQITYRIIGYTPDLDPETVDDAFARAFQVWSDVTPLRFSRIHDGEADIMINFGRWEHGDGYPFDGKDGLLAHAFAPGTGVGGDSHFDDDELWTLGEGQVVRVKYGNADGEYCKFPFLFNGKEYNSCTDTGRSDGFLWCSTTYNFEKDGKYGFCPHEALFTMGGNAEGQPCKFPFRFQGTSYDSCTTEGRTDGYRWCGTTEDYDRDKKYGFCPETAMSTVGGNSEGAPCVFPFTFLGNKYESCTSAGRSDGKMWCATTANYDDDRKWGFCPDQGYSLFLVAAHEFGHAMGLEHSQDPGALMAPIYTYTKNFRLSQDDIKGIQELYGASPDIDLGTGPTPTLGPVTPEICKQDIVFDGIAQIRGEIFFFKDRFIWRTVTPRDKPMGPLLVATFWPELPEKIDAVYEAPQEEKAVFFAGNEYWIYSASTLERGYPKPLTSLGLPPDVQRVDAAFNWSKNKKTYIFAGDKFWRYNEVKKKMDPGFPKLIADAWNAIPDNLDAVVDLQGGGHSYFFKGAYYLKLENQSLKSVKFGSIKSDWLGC

CCCUGCCCUCACCCGUUAGCCUGAGCGCCCCG [F3C1]
binding result ([1]; SP buffer): binds more weakly

GCCCUCACCCGUUAGCCUGAGCGC [F3C2]
binding result ([1]; hardly yielded a SPR signal): binds more weakly

GGUUACCAGCCUUCACUGCCCUGCCCUCACCCGUUAGCCUGAGCGCCCCGCACCACGGUCGGUCACAC [F3]
binding result [2]: binds more weakly
